# Measurements reported in PubChem BioAssay AID540256 (National Center for Advancing Translational Sciences (NCATS), 2011).
# The whole screen tested about 300,000 compounds, of which about 3,700 (1.2%) were called active. The shares of active, inactive and inconclusive entries below differ from those in the screen. The call rests on the fitted dose curve; tested in HEK293 cells. Potencies of inconclusive entries are doubtful fits and often do not repeat.
# Assay: qHTS for Inhibitors of binding or entry into cells for Lassa Virus; further: nearly all actives have a fitted effect of over 50% in size
# Conditions: Lassa virus pseudotype entry inhibition, cell reporter; series mostly up to 37.9 µM
# Potency means the concentration at half of the fitted maximal effect.
row,Compound,Potency
1,CN(C)/N=C/c1ccc([N+](=O)[O-])cc1[N+](=O)[O-],"inconclusive: 1.26 µM [inhibitor, single point]"
2,Cc1ccc(NC(=O)CCOc2ccccc2C)cc1C,"inconclusive: 11.2 µM [inhibitor, partial curve, poor fit]"
3,Cc1ccc(-c2nnc3ccc(SCC(=O)NCc4ccco4)nn23)cc1,inactive
4,Cc1nc(Nc2ccc(Cl)cc2)c2oc3ccccc3c2n1,inactive
5,O=C(NC(=S)Nc1nc(-c2cccc([N+](=O)[O-])c2)cs1)c1cc(Cl)ccc1Cl,"inconclusive: 17.8 µM [inhibitor, partial curve, poor fit]"
6,CCOc1ccc(C(c2c(O)cc(C)n(CCOC)c2=O)N2CCC(C)CC2)cc1 (stereo not given),inactive
7,Cc1cccc(Nc2ccccc2C(=O)NCc2ccco2)c1C,"inconclusive: 14.1 µM [inhibitor, partial curve, poor fit]"
8,O=C(NCc1ccc(Cl)cc1)c1cnc2sc(N3CCCC3)nn2c1=O,inactive
9,Cn1c(=O)n(CC(=O)N2CCN(c3nnc(-c4ccccc4)c4ccccc34)CC2)c2ccccc21,"inconclusive: 18.3 µM [inhibitor, single point]"
10,COc1ccc(CCNC(=O)c2ccc3c(c2)N(Cc2cccc(Cl)c2)C(=O)CS3)cc1OC,"inconclusive: 31.6 µM [inhibitor, partial curve, poor fit]"
11,COc1ccccc1C(=O)NC(=S)/C=C1/N(C)c2ccccc2C1(C)C,"inconclusive: 29.1 µM [inhibitor, single point]"
12,CC1CCN(C(=O)c2ccc3c(c2)OCCO3)CC1,"inconclusive: 1.12 µM [activator, partial curve, poor fit]"
13,O=C(C1CCN(S(=O)(=O)Cc2ccccc2)CC1)N1CCN(c2ncccn2)CC1,"inconclusive: 4.47 µM [activator, full curve, poor fit]"
14,O=C1c2[nH]nc(-c3ccc(Br)cc3)c2C(c2cccc(O)c2)N1c1ccc(Cl)cc1 (stereo not given),"inconclusive: 12.6 µM [inhibitor, partial curve, poor fit]"
15,COc1ccc(NC(=O)c2sc3nc4n(c(=O)c3c2C)CCC4)cc1Cl,inactive
16,O=C(CCCOc1ccc(Cl)cc1Cl)N1CCCc2ccccc21,inactive
17,CCn1nc(CC(=O)Nc2nnc(CC(=O)N3CCCC3)s2)c2ccccc2c1=O,"inconclusive: 35.5 µM [activator, single point]"
18,CN(C)S(=O)(=O)c1cccc(NC(=O)COC(=O)c2ccc3c(c2)OCO3)c1,"inconclusive: 2.24 µM [activator, partial curve, poor fit]"
19,COc1ccc(CNC(=O)C/C(C)=N/NC(=O)c2cnccn2)cc1,"inconclusive: 31.6 µM [activator, partial curve, poor fit]"
20,O=C(NCc1ccccn1)c1ccc(COc2ccc(Cl)cc2)o1,inactive
21,CC(C)CN(C(=O)CSc1nn(-c2ccc(Cl)cc2)c(=S)s1)C1CCS(=O)(=O)C1 (stereo not given),"inconclusive: 14.1 µM [inhibitor, single point]"
22,CCCc1ccc(C(=O)NNc2cc(Cl)ccc2Cl)cc1,"inconclusive: 15.8 µM [inhibitor, single point]"
23,Cc1ccc(O)c(C(=O)c2cc(C#N)c(=O)n(Cc3ccccc3)c2)c1,"inconclusive: 23.1 µM [inhibitor, single point]"

# An excerpt from above in order of formula weight, rising.
row,Compound,Potency
12,CC1CCN(C(=O)c2ccc3c(c2)OCCO3)CC1,"inconclusive: 1.12 µM [activator, partial curve, poor fit]"
7,Cc1cccc(Nc2ccccc2C(=O)NCc2ccco2)c1C,"inconclusive: 14.1 µM [inhibitor, partial curve, poor fit]"
19,COc1ccc(CNC(=O)C/C(C)=N/NC(=O)c2cnccn2)cc1,"inconclusive: 31.6 µM [activator, partial curve, poor fit]"
20,O=C(NCc1ccccn1)c1ccc(COc2ccc(Cl)cc2)o1,inactive
16,O=C(CCCOc1ccc(Cl)cc1Cl)N1CCCc2ccccc21,inactive
11,COc1ccccc1C(=O)NC(=S)/C=C1/N(C)c2ccccc2C1(C)C,"inconclusive: 29.1 µM [inhibitor, single point]"
3,Cc1ccc(-c2nnc3ccc(SCC(=O)NCc4ccco4)nn23)cc1,inactive
15,COc1ccc(NC(=O)c2sc3nc4n(c(=O)c3c2C)CCC4)cc1Cl,inactive
6,CCOc1ccc(C(c2c(O)cc(C)n(CCOC)c2=O)N2CCC(C)CC2)cc1 (stereo not given),inactive
9,Cn1c(=O)n(CC(=O)N2CCN(c3nnc(-c4ccccc4)c4ccccc34)CC2)c2ccccc21,"inconclusive: 18.3 µM [inhibitor, single point]"
21,CC(C)CN(C(=O)CSc1nn(-c2ccc(Cl)cc2)c(=S)s1)C1CCS(=O)(=O)C1 (stereo not given),"inconclusive: 14.1 µM [inhibitor, single point]"
10,COc1ccc(CCNC(=O)c2ccc3c(c2)N(Cc2cccc(Cl)c2)C(=O)CS3)cc1OC,"inconclusive: 31.6 µM [inhibitor, partial curve, poor fit]"

# (cont.)

row,Compound,Potency
1,Cc1ccccc1NC(=O)c1c(C)nn(-c2ccccc2)c1Cl,inactive
2,Cc1cc(C)cc(OCC(=O)OCC(=O)N2CCc3ccccc32)c1,inactive
3,COc1ccc(Cc2nnc(NC(=O)Cc3cccs3)s2)cc1,"inconclusive: 35.5 µM [inhibitor, single point]"
4,COc1cccc(-n2nnc3c(=O)n(Cc4cccc(F)c4)cnc32)c1,"inconclusive: 23.1 µM [inhibitor, single point]"
5,CCOc1ccccc1C(=O)Nc1ccsc1C(=O)OC,"inconclusive: 3.66 µM [inhibitor, full curve]"
6,Cc1cc(C)c(NC(=O)c2cc(S(=O)(=O)N3CCN(c4ccccc4F)CC3)ccc2F)c(C)c1,inactive
7,Cc1ccc(OCCn2cnc3ccccc3c2=O)c([N+](=O)[O-])c1,"inconclusive: 4.11 µM [activator, full curve, poor fit]"
8,CCCN1Cc2cccc(C(=O)Nc3ccc(-c4nc5ccccc5[nH]4)cc3)c2C1=O,inactive
9,COc1ccc(/C=N/NC(=O)c2cccc(NC(=O)c3ccccc3)c2)c(C(=O)O)c1OC,inactive
10,CCOc1ccc(CNC(=O)c2ccc3c(c2)c(C)c(C)n3Cc2ccc(Cl)cc2)cc1,inactive
11,O=[N+]([O-])c1cc(-n2cnnn2)ccc1N1CCC(Cc2ccccc2)CC1,inactive
12,Cc1cccc(N(CC(N)=O)S(C)(=O)=O)c1C,inactive
13,O=C(COc1ccc(Br)cc1)N1CCc2ccccc21,"inconclusive: 35.5 µM [inhibitor, single point]"
14,CCOC(=O)c1sc(NC(=O)c2ccc(S(=O)(=O)N3CCOCC3)cc2)cc1C,"inconclusive: 17.8 µM [inhibitor, partial curve, poor fit]"
15,CCOc1cc(C)c(S(=O)(=O)Nc2ccc3cn[nH]c3c2)cc1C,inactive
16,Cc1oc2ccc(O)c(CN(C)C)c2c1C(=O)c1ccccc1,"inconclusive: 11.2 µM [inhibitor, partial curve]"
17,CC1CCC(C(C)C)C(OCC[N+](C)(C)C)C1 (stereo not given),"inconclusive: 7.94 µM [activator, partial curve, poor fit]"
18,Cc1csc(NC(=O)c2ccc(OCC3CCCO3)cc2)n1 (stereo not given),active: 3.55 µM
19,Cc1ccc(-c2nc3nc(C)cc(Nc4ccccc4O)n3n2)cc1,"inconclusive: 1.78 µM [inhibitor, partial curve, poor fit]"
20,COc1ccc(-c2csc(Nc3cccc(C)n3)n2)cc1C,"inconclusive: 25.1 µM [inhibitor, single point]"
21,COc1ccc(/C=C(/C#N)C(=O)NC2CCCCC2)cc1Br,inactive
22,COC(=O)c1ccc(COc2ccccc2/C=C(\C#N)C(=O)Nc2ccccc2C)cc1,"inconclusive: 32.6 µM [activator, single point]"
